Paper PMC4872223
Positions count from the first letter of the chain named. Numbers in names are those of the source. No constants are given. Whether binding was seen depends on the method and setting. For some assays here: Binding seen in cells or lysates may run through a third protein. Some entries that bind do so weakly or less than the wild type. Sequences can lack the tags named with a protein. Each block holds one binder with its values, some of them ahead of it.

Experiments:
[1] = biological target: T1, MET18, yeast two-hybrid fusion (Arabidopsis) (UniProt Q0WVF8); test: two-hybrid; pGBK-T7 (BD) and pGAD-T7 (AD) fusions co-transformed into yeast strain AH109; growth on medium lacking Leu, Trp and His (SD-TLH)
T1 sequence: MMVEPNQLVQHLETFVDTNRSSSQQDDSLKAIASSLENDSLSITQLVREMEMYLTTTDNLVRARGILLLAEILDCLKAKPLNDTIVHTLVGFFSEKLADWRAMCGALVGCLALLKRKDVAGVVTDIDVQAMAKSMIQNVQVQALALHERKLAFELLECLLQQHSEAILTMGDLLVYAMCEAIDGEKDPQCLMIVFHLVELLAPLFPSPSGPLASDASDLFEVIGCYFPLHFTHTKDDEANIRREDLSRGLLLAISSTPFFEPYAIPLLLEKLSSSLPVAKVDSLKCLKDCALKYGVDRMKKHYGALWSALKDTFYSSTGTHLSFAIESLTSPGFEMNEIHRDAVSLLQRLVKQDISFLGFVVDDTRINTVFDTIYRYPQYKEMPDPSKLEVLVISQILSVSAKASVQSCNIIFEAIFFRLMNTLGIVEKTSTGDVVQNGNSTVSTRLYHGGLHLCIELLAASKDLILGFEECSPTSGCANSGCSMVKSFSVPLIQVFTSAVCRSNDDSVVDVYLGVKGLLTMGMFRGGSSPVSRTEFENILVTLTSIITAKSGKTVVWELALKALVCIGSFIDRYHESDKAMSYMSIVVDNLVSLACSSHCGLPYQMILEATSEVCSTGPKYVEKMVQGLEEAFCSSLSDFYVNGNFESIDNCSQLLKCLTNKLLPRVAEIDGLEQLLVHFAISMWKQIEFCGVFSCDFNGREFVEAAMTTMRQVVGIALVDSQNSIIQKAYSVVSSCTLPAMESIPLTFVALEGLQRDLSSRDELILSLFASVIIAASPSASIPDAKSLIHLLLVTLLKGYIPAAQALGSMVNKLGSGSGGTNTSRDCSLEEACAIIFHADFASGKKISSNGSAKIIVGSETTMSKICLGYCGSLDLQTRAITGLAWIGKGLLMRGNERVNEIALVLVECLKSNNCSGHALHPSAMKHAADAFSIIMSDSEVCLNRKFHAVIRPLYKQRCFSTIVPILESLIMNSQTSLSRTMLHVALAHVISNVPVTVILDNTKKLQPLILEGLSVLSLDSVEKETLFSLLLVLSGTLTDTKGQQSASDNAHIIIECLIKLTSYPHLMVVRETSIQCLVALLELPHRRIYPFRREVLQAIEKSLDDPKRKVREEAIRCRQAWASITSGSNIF

MET18-cLUC (Arabidopsis) = biological target: T2, MET18-cLUC (Arabidopsis) (UniProt Q0WVF8); test: split reporter; firefly luciferase complementation imaging (split-LUC); nLUC and cLUC fusions co-infiltrated into Nicotiana benthamiana leaves, with viral p19
T2 sequence: T1 sequence

[2] = biological target: T3, MET18, BiFC fusion (Arabidopsis) (UniProt Q0WVF8); test: split reporter; BiFC with YFP^N and YFP^C fusions, as described by Walter et al.; YFP signal primarily in the cytoplasm
T3 sequence: T1 sequence

[3] = biological target: T4, AE7, yeast two-hybrid fusion (Arabidopsis), Q9C9G6; test: two-hybrid; pGBK-T7 (BD) and pGAD-T7 (AD) fusions co-transformed into yeast strain AH109; growth on medium lacking Leu, Trp and His (SD-TLH); conditions: remark: other sources report otherwise
T4 chain: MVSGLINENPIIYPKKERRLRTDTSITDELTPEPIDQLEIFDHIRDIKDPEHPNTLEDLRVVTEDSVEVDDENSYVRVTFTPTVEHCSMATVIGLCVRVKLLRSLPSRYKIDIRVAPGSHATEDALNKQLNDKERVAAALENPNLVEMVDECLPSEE

B1: ROS1, yeast two-hybrid fusion (protein, UniProt Q9SJQ6 1-1393)
chain: MEKQRREESSFQQPPWIPQTPMKPFSPICPYTVEDQYHSSQLEERRFVGNKDMSGLDHLSFGDLLALANTASLIFSGQTPIPTRNTEVMQKGTEEVESLSSVSNNVAEQILKTPEKPKRKKHRPKVRREAKPKREPKPRAPRKSVVTDGQESKTPKRKYVRKKVEVSKDQDATPVESSAAVETSTRPKRLCRRVLDFEAENGENQTNGDIREAGEMESALQEKQLDSGNQELKDCLLSAPSTPKRKRSQGKRKGVQPKKNGSNLEEVDISMAQAAKRRQGPTCCDMNLSGIQYDEQCDYQKMHWLYSPNLQQGGMRYDAICSKVFSGQQHNYVSAFHATCYSSTSQLSANRVLTVEERREGIFQGRQESELNVLSDKIDTPIKKKTTGHARFRNLSSMNKLVEVPEHLTSGYCSKPQQNNKILVDTRVTVSKKKPTKSEKSQTKQKNLLPNLCRFPPSFTGLSPDELWKRRNSIETISELLRLLDINREHSETALVPYTMNSQIVLFGGGAGAIVPVTPVKKPRPRPKVDLDDETDRVWKLLLENINSEGVDGSDEQKAKWWEEERNVFRGRADSFIARMHLVQGDRRFTPWKGSVVDSVVGVFLTQNVSDHLSSSAFMSLASQFPVPFVPSSNFDAGTSSMPSIQITYLDSEETMSSPPDHNHSSVTLKNTQPDEEKDYVPSNETSRSSSEIAISAHESVDKTTDSKEYVDSDRKGSSVEVDKTDEKCRVLNLFPSEDSALTCQHSMVSDAPQNTERAGSSSEIDLEGEYRTSFMKLLQGVQVSLEDSNQVSPNMSPGDCSSEIKGFQSMKEPTKSSVDSSEPGCCSQQDGDVLSCQKPTLKEKGKKVLKEEKKAFDWDCLRREAQARAGIREKTRSTMDTVDWKAIRAADVKEVAETIKSRGMNHKLAERIQGFLDRLVNDHGSIDLEWLRDVPPDKAKEYLLSFNGLGLKSVECVRLLTLHHLAFPVDTNVGRIAVRLGWVPLQPLPESLQLHLLEMYPMLESIQKYLWPRLCKLDQKTLYELHYQMITFGKVFCTKSKPNCNACPMKGECRHFASAFASARLALPSTEKGMGTPDKNPLPLHLPEPFQREQGSEVVQHSEPAKKVTCCEPIIEEPASPEPETAEVSIADIEEAFFEDPEEIPTIRLNMDAFTSNLKKIMEHNKELQDGNMSSALVALTAETASLPMPKLKNISQLRTEHRVYELPDEHPLLAQLEKREPDDPCSYLLAIWTPGETADSIQPSVSTCIFQANGMLCDEETCFSCNSIKETRSQIVRGTILIPCRTAMRGSFPLNGTYFQVNEVFADHASSLNPINVPRELIWELPRRTVYFGTSVPTIFKGLSTEKIQACFWKGYVCVRGFDRKTRGPKPLIARLHFPASKLKGQQANLA
- binding [1]: binds

B2: ROS1-nLUC (protein, UniProt Q9SJQ6 1-1393)
chain: B1 chain
- binding (MET18-cLUC (Arabidopsis)): binds

B4: ROS1 C1045S-nLUC (protein, UniProt Q9SJQ6 1-1393)
chain: B1 chain with C1045S
- binding (MET18-cLUC (Arabidopsis)): binds

B5: ROS1, yeast two-hybrid fusion, Q9SJQ6 1-1393 (protein)
chain: B1 chain
- binding [3]: no binding

B7: AE7, yeast two-hybrid fusion (protein, UniProt Q9C9G6 1-157)
chain: T4 chain
- binding [1]: binds

Other lines, results leading:

- binding [2]: binds
B3: ROS1, BiFC fusion (protein, UniProt Q9SJQ6 1-1393)
chain: B1 chain

- binding (MET18-cLUC (Arabidopsis)): binds
B6: ROS1 C1038S-nLUC (protein, UniProt Q9SJQ6 1-1393)
chain: B1 chain with C1038S

- binding (MET18-cLUC (Arabidopsis)): binds
B8: AE7-nLUC (protein, UniProt Q9C9G6 1-157)
chain: T4 chain
